Reference: article PMC6232482
Numbering of substitutions follows the chain as printed. These are yes or no findings as the source states them, for the method shown. In cells and extracts the contact can be indirect. For part of these data: Binding can be weak; no strength is given. Tags and fused reporters may be left off the sequences shown.

How the values were obtained:
Experiment in all cases: co-IP
[1] = target: T1, eGFP-IRF3(1-190), N-terminal portion (UniProt Q14653)
T1 sequence: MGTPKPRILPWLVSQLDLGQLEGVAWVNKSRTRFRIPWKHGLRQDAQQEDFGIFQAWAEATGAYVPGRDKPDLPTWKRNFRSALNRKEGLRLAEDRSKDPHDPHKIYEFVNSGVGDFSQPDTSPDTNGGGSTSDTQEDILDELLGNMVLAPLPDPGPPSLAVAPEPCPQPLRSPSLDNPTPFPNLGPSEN

[2] = target: T2, eGFP-fused IRF3 DNA-binding domain (aa 1 to 113), in vitro translated (UniProt Q14653)
T2 sequence: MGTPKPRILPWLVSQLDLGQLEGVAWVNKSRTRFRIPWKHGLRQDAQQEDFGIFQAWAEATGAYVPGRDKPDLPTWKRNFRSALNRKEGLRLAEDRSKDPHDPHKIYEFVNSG

[3] = target: T3, eGFP-IRF3(S385A/S386A-R211A/R213A) (UniProt Q14653)
T3 sequence: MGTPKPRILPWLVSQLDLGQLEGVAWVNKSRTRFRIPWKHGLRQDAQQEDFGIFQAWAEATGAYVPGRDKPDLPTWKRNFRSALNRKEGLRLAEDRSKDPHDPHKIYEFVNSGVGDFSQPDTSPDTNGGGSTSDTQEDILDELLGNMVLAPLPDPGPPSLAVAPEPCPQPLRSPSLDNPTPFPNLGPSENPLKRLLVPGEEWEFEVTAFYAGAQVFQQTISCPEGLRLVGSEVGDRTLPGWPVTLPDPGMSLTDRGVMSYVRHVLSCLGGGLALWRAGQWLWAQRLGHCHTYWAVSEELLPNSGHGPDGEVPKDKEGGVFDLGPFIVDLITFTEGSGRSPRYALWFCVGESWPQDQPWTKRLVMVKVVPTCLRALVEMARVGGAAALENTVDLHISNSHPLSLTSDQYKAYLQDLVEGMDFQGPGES

eGFP-IRF7 = target: T4, eGFP-IRF7 (UniProt Q92985)
T4 sequence: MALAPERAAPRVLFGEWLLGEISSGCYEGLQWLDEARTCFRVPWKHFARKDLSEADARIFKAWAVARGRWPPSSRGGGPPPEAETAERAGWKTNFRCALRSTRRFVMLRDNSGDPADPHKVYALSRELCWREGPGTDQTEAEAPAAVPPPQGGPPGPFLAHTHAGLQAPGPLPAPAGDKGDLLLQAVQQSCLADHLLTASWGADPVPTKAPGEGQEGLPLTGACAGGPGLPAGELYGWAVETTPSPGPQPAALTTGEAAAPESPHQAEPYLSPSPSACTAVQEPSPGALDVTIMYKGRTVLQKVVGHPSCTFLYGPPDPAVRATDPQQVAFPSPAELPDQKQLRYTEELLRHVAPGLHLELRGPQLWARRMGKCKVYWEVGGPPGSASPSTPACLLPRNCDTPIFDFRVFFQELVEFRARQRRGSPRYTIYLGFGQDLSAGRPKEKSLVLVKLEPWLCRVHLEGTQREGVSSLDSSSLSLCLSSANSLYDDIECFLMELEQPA

[4] = target: T5, eGFP-IRF3(190-427), C-terminal portion (UniProt Q14653)
T5 sequence: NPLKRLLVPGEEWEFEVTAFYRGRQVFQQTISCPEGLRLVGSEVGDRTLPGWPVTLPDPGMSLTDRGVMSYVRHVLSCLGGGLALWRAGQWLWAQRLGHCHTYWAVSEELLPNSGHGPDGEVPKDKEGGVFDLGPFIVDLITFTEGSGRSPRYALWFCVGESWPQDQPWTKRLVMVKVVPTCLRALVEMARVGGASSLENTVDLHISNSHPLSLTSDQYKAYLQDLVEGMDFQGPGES

eGFP-IRF2 = target: T6, eGFP-IRF2 (UniProt P14316)
T6 sequence: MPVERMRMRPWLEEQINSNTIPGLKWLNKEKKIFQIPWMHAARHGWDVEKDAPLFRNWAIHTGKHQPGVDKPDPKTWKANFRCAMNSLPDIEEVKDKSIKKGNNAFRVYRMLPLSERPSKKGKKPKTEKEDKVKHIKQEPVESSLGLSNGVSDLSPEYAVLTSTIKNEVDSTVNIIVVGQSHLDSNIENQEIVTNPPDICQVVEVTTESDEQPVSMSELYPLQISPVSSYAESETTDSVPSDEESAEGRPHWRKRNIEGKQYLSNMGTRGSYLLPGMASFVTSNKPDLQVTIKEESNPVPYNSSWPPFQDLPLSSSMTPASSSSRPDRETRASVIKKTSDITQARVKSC

[5] = target: T7, eGFP-IRF3(S385A/S386A-R285A/H288A/H290A) (UniProt Q14653)
T7 sequence: T3 sequence with A211R, A213R, R285A, H288A, H290A

[6] = target: T8, eGFP-IRF3(S385A/S386A), dimerization-deficient mutant (UniProt Q14653)
T8 sequence: T3 sequence with A211R, A213R

eGFP-IRF9 = target: T9, eGFP-IRF9 (UniProt Q00978)
T9 sequence: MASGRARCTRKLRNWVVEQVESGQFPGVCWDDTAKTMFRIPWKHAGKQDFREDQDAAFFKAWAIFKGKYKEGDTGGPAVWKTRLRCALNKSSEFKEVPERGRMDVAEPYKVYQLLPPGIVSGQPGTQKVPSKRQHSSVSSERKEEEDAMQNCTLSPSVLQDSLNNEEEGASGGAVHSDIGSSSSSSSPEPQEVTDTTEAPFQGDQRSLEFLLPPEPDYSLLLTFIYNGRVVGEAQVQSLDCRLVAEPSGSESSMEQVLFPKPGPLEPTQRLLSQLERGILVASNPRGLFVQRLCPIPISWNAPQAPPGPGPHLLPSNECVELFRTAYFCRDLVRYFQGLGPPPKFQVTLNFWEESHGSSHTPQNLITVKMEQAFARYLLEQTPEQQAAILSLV

3×FLAG-tagged NSs of sandfly fever Sicilian virus (SFSV)
binding [1]: binds | binding [2]: binds | binding [3]: binds | binding (eGFP-IRF7): no binding | binding [4]: no binding | binding (eGFP-IRF2): no binding | binding [5]: binds | binding [6]: binds | binding (eGFP-IRF9): no binding
